For this assay, the target named is K^k class I MHC molecule on K^k-expressing T2 cells (mouse) (UniProt P04223). In words: T2 cell assay: peptide-induced stabilisation of surface K^k on K^k-expressing T2 cells after overnight incubation, stained with a class I-specific antibody.

By UniProt entry, the sequences of proteins in these tests, tags left out. Residues count along the entry.
UniProt P04223, residues 22-369: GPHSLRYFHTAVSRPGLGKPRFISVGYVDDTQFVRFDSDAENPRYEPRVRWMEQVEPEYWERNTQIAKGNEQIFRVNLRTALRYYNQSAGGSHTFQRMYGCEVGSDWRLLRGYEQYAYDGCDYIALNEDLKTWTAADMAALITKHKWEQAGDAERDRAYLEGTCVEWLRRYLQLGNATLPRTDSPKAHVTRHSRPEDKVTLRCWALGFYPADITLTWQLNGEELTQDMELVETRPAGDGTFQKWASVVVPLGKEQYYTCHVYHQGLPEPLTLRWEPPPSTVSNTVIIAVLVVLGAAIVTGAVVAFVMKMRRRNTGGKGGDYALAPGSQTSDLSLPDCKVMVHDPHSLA

Results are given in words; binding and its absence hold for the method and conditions named. Some entries that bind do so weakly or less than the wild type.

For EEKKGNYV [EEKKGNYV (SEQ ID NO: 3) peptide], the binding entry is “binds”.
